Series [1] has as its system UMP. Nature of the series: Base-pairing by IR spectra of 1:1 nucleotide mixtures in D2O, with UMP. As to conditions: shift to higher frequencies, 1500-1800 cm^−1, 20 mM, 0.1 M NaCl.
Series [2] relates to CMP. Nature of the series: Base-pairing by IR spectra of 1:1 nucleotide mixtures in D2O, with CMP.

As to `Nc1nc2nccn2c2c1ncn2C1OC(COP(=O)(O)O)C(O)C1O` (stereo not shown) [30a′], the “IR shift of the 1:1 mixture with U vs calculated sum of spectra” value in series [1] is 6 cm⁻¹. The “IR shift of the mixture with CMP vs calculated sum of spectra” value in series [2] (shift to lower frequencies, 20 mM, 0.1 M NaCl) was 7 cm⁻¹.

As to `Nc1ncnc2c1ncn2[C@@H]1O[C@H](COP(=O)(O)O)[C@@H](O)[C@H]1O` [A, reference compound], the “IR shift of the 1:1 mixture with U vs calculated sum of spectra” value in series [1] was 7 cm⁻¹. The “IR spectrum of the 1:1 mixture with C vs calculated sum” value in series [2] (1500-1800 cm^−1) is “identical to the calculated sum”.
